According to doi:10.1101/2025.11.17.688803:
No constants are given. Whether binding was seen depends on the method and setting. Binding seen in cells or lysates may run through a third protein. Tags and fused reporters may be left off the sequences shown.

Target: T1, HA-tagged TAK1 (transforming growth factor-beta-activated kinase 1), wild type (UniProt O43318)
T1 sequence: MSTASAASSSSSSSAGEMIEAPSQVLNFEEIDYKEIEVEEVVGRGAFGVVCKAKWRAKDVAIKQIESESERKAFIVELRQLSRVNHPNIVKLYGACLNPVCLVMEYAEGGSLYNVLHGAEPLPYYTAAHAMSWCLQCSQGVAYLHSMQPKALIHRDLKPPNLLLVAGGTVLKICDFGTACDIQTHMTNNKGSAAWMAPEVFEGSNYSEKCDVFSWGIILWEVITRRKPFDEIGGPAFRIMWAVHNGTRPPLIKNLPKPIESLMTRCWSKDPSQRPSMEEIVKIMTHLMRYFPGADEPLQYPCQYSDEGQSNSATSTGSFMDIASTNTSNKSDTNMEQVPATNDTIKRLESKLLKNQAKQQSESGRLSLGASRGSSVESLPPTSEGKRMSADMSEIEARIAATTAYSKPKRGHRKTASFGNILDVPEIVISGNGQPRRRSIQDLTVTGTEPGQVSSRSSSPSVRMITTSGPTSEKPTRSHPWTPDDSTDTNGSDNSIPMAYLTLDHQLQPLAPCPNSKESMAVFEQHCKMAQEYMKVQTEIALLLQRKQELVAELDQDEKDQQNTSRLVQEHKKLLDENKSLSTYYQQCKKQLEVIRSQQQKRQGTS
Assay: co-IP

- binding: no binding
Substance: Myc-LRBA (a.a. 2045-2483) F2406R (mouse) (domain or fragment)
